Hit rate of the full screen: of about 580,000 compounds, about 6,100 (1.1%) were called active. Inconclusive results, whose numbers are uncertain, are shown with a selection of clear calls. Calls follow the shape of the dose curve; as a rule, active = well fitted inhibition curve with a large enough effect; inconclusive = small, poorly fitted or top-dose-only effect, or another doubt; inactive = no such curve, though single readings can be large or run the other way. Where the call is inconclusive, the potency comes from a doubtful curve fit.
These compounds were tested against Polyunsaturated fatty acid lipoxygenase ALOX12 (Homo sapiens) (UniProt P18054) (assay: Primary qHTS assay for inhibitors of human arachidonate 12S-lipoxygenase (ALOX12): Round 2). Conditions: purified 12hLO, xylenol orange hydroperoxide absorbance; activity change, negative = inhibition: at 108 µM (top of the series) unless noted.
Procedure, shortened: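 Purified human 12hLO at 150 nM in 25 mM Hepes, 0.01% Triton X-100, pH 7.0, preincubated 15 min at room temperature with compound. Reaction started with 40 uM arachidonic acid, 30 min at room temperature. Hydroperoxide measured by Fe-xylenol orange, 573/405 nm absorbance ratio.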
% is scaled to controls: 0 for no effect and ±100 for the full control effect; potency is read from the fitted curve at half-maximal effect.

Sequences of proteins named here, by UniProt entry; tags and fusion partners are left off. A change or cut given only in a name is not applied to a line headed by its entry.
UniProt P18054: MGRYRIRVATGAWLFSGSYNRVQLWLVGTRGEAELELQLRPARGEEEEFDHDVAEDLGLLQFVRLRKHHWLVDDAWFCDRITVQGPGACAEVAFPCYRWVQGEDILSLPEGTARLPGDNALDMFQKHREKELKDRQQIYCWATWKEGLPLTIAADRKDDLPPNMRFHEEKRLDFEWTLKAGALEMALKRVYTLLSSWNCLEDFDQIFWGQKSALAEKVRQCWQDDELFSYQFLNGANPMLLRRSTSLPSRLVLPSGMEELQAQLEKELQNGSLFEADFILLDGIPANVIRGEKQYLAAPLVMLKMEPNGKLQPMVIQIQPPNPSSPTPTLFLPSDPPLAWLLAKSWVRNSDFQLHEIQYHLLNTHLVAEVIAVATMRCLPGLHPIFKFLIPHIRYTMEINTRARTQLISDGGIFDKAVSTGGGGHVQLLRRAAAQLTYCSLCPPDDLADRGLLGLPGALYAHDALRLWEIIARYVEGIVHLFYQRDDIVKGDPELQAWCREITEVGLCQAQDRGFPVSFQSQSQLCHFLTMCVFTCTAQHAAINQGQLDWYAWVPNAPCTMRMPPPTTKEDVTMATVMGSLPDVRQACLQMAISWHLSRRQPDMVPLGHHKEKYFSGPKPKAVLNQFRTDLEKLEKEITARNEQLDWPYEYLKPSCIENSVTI

`O=C(NCCN1CCCCC1)c1cc2ccccc2[nH]1` was tested. Which Potency did it give?
The Potency was inconclusive: 79.4 µM [inhibitor, single point].

Which Potency does the source give for `CC(C)c1ccc(C(CC(=O)c2ccc(Cl)cc2)S(=O)(=O)c2ccccc2)cc1` (centres undefined) here?
Its Potency is inconclusive: 112 µM [inhibitor, partial curve, poor fit].

With `N#C/C(=N\Nc1cccc2ccccc12)c1nnc2n1CCCCC2` as the compound, how does the Potency read?
Its Potency is inconclusive: 14.1 µM [inhibitor, full curve].

`COc1ccc(COCC(O)CN2CCN(S(=O)(=O)c3c(F)cccc3F)CC2)cc1OC` (centres undefined) was tested. Which Potency did it give?
Its Potency is inconclusive: 28.2 µM [inhibitor, single point].

For `Cc1ccc2nc(NC(=O)c3cc(=O)c4ccccc4o3)sc2c1`, which Potency is on record?
The Potency was inconclusive: 50.1 µM [inhibitor, partial curve, poor fit].

`Cc1cccc(C(=O)NCCN2CCN(c3ccccc3)CC2)c1` was tested. Which Potency did it give?
Its Potency is inconclusive: 56.2 µM [inhibitor, partial curve, poor fit].

For `CSc1ccc(/C=C2/C(=O)c3ccccc3OC2c2ccccc2)cc1` (centres undefined), which Potency is on record?
The Potency was inconclusive: 44.7 µM [inhibitor, partial curve, poor fit].

With `Nn1c(COc2ccccc2F)nnc1SCC(=O)NC1CCS(=O)(=O)C1` (centres undefined) as the compound, how does the Potency read?
The Potency was inconclusive: 44.7 µM [inhibitor, partial curve, poor fit].

For `CC1c2cc3c(cc2CCN1C(=O)c1ccc(C(F)(F)F)cc1)OCCCO3` (centres undefined), which “activity change, negative = inhibition” value is on record?
The value was inactive: 12.6%.

`CCCCNS(=O)(=O)c1cccc(NC(=O)[C@@H]2O[C@H](CO)[C@@H](O)[C@H]2O)c1` was tested. Which Potency did it give?
Its Potency is inconclusive: 112 µM [inhibitor, single point].

`CCc1ccc(OC2(C)CCN(CCOc3ccc(C)cc3)C2)cc1` (centres undefined) was tested. Which Potency did it give?
Its Potency is inconclusive: 35.5 µM [inhibitor, partial curve, poor fit].

`Cc1oc(-c2ccccc2Cl)nc1CS(=O)CC(=O)NCc1cccs1` (centres undefined) was tested. Which “activity change, negative = inhibition” value did it give?
The value was inactive: 11.7% [at 57.4 µM].

How did the Potency turn out when `COc1cc(Cl)ccc1NC(=O)COc1ccccc1C(=O)N1CCN(c2ccc(O)cc2)CC1` was run?
The Potency was inconclusive: 70.8 µM [inhibitor, partial curve, poor fit].

How did the Potency turn out when `COC(=O)c1ccccc1S(=O)(=O)N1CCC(C(=O)NCc2ccco2)CC1` was run?
Its Potency is inconclusive: 158 µM [inhibitor, partial curve, poor fit].

With `CC(=O)NC(c1ccccc1)c1cc(Cl)c2cccnc2c1O` (centres undefined) as the compound, how does the “activity change, negative = inhibition” value read?
Its value is inactive: -3.91%.

For `COC(=O)[C@@H]1Cc2c([nH]c3ccccc23)[C@H]2C[C@@H](NC(C)C)C[C@@H](c3ccc(C)cc3)N21`, which Potency is on record?
Its Potency is inconclusive: 22.4 µM [inhibitor, full curve, poor fit].

For `Cn1c(=N)n(CC(O)c2cccc3ccccc23)c2ccccc21` (centres undefined), which “activity change, negative = inhibition” value is on record?
The value was inactive: 15.5%.

`CC(C)CCN1NC2(CCCC(C)C2)NC1=S` (centres undefined) was tested. Which Potency did it give?
The Potency was inconclusive: 126 µM [inhibitor, single point].

For `COc1ccccc1C(=O)NC[C@@H]1C=C(C)[C@H](Cc2nc3ccncc3[nH]2)C[C@H]1C(C)C`, which “activity change, negative = inhibition” value is on record?
Its value is inactive: 11.1% [at 176 µM].

`COc1cc(NC(=O)CSc2nnnn2-c2ccccc2)cc(OC)c1OC` was tested. Which Potency did it give?
Its Potency is inconclusive: 100 µM [inhibitor, single point].

Which Potency does the source give for `COc1cc(OC)c(OC)cc1/C=C/C(=O)c1sc(-c2ccc(O)cc2)nc1C` here?
The Potency was inconclusive: 44.7 µM [inhibitor, partial curve, poor fit].

With `Cc1c(S(=O)(=O)NC2CCCCCC2)c(=O)n(C)c(=O)n1C` as the compound, how does the Potency read?
The Potency was inconclusive: 3.16 µM [inhibitor, partial curve, poor fit].

With `CN1CCN(c2ccc(S(=O)(=O)N3CCCCC3)cc2NC(=O)COc2cccc(Cl)c2)CC1` as the compound, how does the Potency read?
Its Potency is inconclusive: 89.1 µM [inhibitor, single point].

Which “activity change, negative = inhibition” value does the source give for `N#Cc1nc(-c2ccccc2F)oc1N1CCCCC1` here?
The value was inactive: -25.1%.

How did the Potency turn out when `Cc1ccc(CNC(=O)Cn2nc3ccc(SC(C)(C)C)nn3c2=O)cc1` was run?
The Potency was inconclusive: 112 µM [inhibitor, single point].

Which “activity change, negative = inhibition” value does the source give for `O=C(Oc1ccc(C(=S)N2CCOCC2)cc1)c1ccccc1F` here?
The value was inactive: 5.21%.

Which Potency does the source give for `CC1=CC(=O)c2ccc3c4c(ccc1c24)CC3` here?
The Potency was inconclusive: 31.6 µM [inhibitor, partial curve, poor fit].

`CCCCn1nnnc1CN1CCCC1c1ccc2c(c1)OCCO2` (centres undefined) was tested. Which “activity change, negative = inhibition” value did it give?
The value was inactive: -14.4%.

With `CC(OC(=O)c1ccc2ccccc2n1)C(=O)Nc1ccc(N2CCOCC2)cc1` (centres undefined) as the compound, how does the Potency read?
Its Potency is inconclusive: 44.7 µM [inhibitor, full curve, poor fit].

With `CC1C(=O)N(Cc2cn(CCC3OCCO3)nn2)CCS(=O)(=O)N1Cc1ccc(-c2ccccc2)cc1` (centres undefined) as the compound, how does the Potency read?
The Potency was inconclusive: 63.1 µM [inhibitor, partial curve, poor fit].

Which Potency does the source give for `COc1ccc(-c2ccc(COc3ccc4c(cnn4CCC(=O)O)c3)cc2)c(C)c1` here?
Its Potency is inconclusive: 44.7 µM [inhibitor, full curve].

`Cc1cccc(CN2CCC(CNC(=O)Nc3cn(CC(C)C)c(=O)c4ccccc34)CC2)c1` was tested. Which Potency did it give?
The Potency was inconclusive: 44.7 µM [inhibitor, partial curve, poor fit].

How did the Potency turn out when `COC(=O)c1ccc2nc(-c3ccco3)c(Cc3ccccc3)n2c1` was run?
The Potency was active: 39.8 µM.

For `CC(C)CNC(=O)CN1CCN(c2cccc(F)c2C#N)CC1`, which Potency is on record?
Its Potency is inconclusive: 112 µM [inhibitor, single point].

How did the Potency turn out when `COc1cc(NC(=O)COCc2cc(-c3ccc4c(c3)OCO4)on2)cc(OC)c1` was run?
The Potency was inconclusive: 44.7 µM [inhibitor, partial curve, poor fit].

Which Potency does the source give for `CCN1CCN(S(=O)(=O)c2ccc(Cl)c(C(=O)N3CCN(c4ccccn4)CC3)c2)CC1` here?
Its Potency is inconclusive: 89.1 µM [inhibitor, single point].

How did the activity change, negative = inhibition turn out when `CCOc1cc(COC(=O)c2ccc(S(=O)(=O)N3CCCC3)cc2)ccc1OC(F)F` was run?
The activity change, negative = inhibition was inconclusive: -34.9% [inhibitor].

For `COc1ccccc1NC(=O)c1ccc(S(=O)(=O)N2CCOCC2)cc1`, which “activity change, negative = inhibition” value is on record?
Its value is inactive: 0%.

Which Potency does the source give for `S=C(NCc1cccc(Cl)c1)NCc1ccco1` here?
Its Potency is inconclusive: 50.1 µM [inhibitor, partial curve, poor fit].

Which Potency does the source give for `Cc1ccc(NC(=S)NC(=O)c2ccc(-c3ccc(Cl)cc3)o2)c(O)c1` here?
Its Potency is inconclusive: 20 µM [inhibitor, full curve, poor fit].

How did the Potency turn out when `CC1CCC(N2CCN(S(=O)(=O)Cc3ccccc3)CC2)CC1` (centres undefined) was run?
Its Potency is inconclusive: 1.26 µM [inhibitor, full curve, poor fit].

For `Cn1ncc2c(N3CCC(Cc4ccccc4)CC3)ncnc21`, which “activity change, negative = inhibition” value is on record?
Its value is inactive: -1.94%.

`Cc1cc(C(=O)OCC(=O)N(C)c2ccccc2)c(C)o1` was tested. Which Potency did it give?
The Potency was inconclusive: 14.1 µM [inhibitor, partial curve, poor fit].

For `COC(C[C@H]1O[C@H]1[C@@H](O)[C@H](C)OCc1ccccc1)OC`, which Potency is on record?
The Potency was inconclusive: 112 µM [inhibitor, single point].

For `NC(N)=NS(=O)(=O)c1ccc(NC(=S)NC(=O)Cc2ccc(Cl)cc2)cc1`, which Potency is on record?
Its Potency is inconclusive: 50.1 µM [inhibitor, partial curve, poor fit].

`COc1ccc2[nH]cc(CCNc3ccnc(-c4ccc(N(C)C)cc4)n3)c2c1` was tested. Which Potency did it give?
The Potency was inconclusive: 79.4 µM [inhibitor, partial curve, poor fit].

With `CC(C)(C)NC(=O)c1ccc(NC(=O)C2(C)CC2(Cl)Cl)cc1` (centres undefined) as the compound, how does the Potency read?
The Potency was inconclusive: 35.5 µM [inhibitor, single point].

Which Potency does the source give for `O=C(CSc1nc2ncccc2[nH]1)Nc1ccc2c(c1)OCCO2` here?
The Potency was inconclusive: 79.4 µM [inhibitor, partial curve, poor fit].

Which “activity change, negative = inhibition” value does the source give for `Cc1ccc(NC(=S)NC2CC3CCC(C2)N3Cc2ccco2)cc1C` (centres undefined) here?
The value was inactive: 1.89% [at 57.4 µM].

With `Cc1csc(N2CCN(c3cc4c(cc3Cl)nc(-c3ccncc3)n4CCCN3CCCC3)CC2)n1` as the compound, how does the “activity change, negative = inhibition” value read?
Its value is inactive: -18.1%.

`CCOc1ccccc1/C=C/c1onc(C)c1S(=O)(=O)N1CCC(C(=O)N2CCCCCC2)CC1` was tested. Which Potency did it give?
The Potency was inconclusive: 56.2 µM [inhibitor, partial curve, poor fit].

How did the “activity change, negative = inhibition” value turn out when `CSc1nnc(C)c(=O)n1COC(=O)COc1ccccc1C` was run?
The value was inactive: -4.49%.

With `COc1cc(NC(=O)c2oc3c(c2C)-c2nn(Cc4cccc(Cl)c4)cc2CC3)cc(OC)c1` as the compound, how does the Potency read?
The Potency was inconclusive: 0.355 µM [inhibitor, full curve, poor fit].

Which Potency does the source give for `COc1cccc(/C(C)=N/Nc2ncc(Cl)cc2Cl)c1` here?
The Potency was inconclusive: 2 µM [inhibitor, full curve, poor fit].

Which Potency does the source give for `CC(=O)c1ccc(C(=O)N2CCCC(c3nc(SCc4ccccn4)ncc3C)C2)cc1` (centres undefined) here?
Its Potency is inconclusive: 100 µM [inhibitor, single point].

How did the “activity change, negative = inhibition” value turn out when `Cc1ccc(S(=O)(=O)N2CCC(CC(=O)NCc3ccccc3)C2)cc1F` (centres undefined) was run?
Its value is inactive: -2.95%.

With `CCCS(=O)(=O)c1nc(S(=O)(=O)c2ccc(Cl)cc2)c(NCC(C)C)s1` as the compound, how does the Potency read?
Its Potency is inconclusive: 79.4 µM [inhibitor, single point].

Which “activity change, negative = inhibition” value does the source give for `COc1ccc2c(c1)c1ncn(Cc3ccco3)c(=O)c1n2C` here?
Its value is inactive: -8.55%.

For `Cc1cc(N2CCN(C)CC2)nc2ccc(NC(=S)NCCC(C)C)cc12`, which Potency is on record?
Its Potency is inconclusive: 44.7 µM [inhibitor, partial curve, poor fit].

How did the “activity change, negative = inhibition” value turn out when `O=C(NC(=S)Nc1ccccc1N1CCOCC1)c1ccc([N+](=O)[O-])cc1` was run?
The value was inactive: 8.26%.

`O=C(CNC1CCCCCC1)Nc1ccccc1N1CCCCC1` was tested. Which Potency did it give?
The Potency was inconclusive: 0.794 µM [inhibitor, full curve].

`CCCCCCCCCCCCCCCCNC(=O)CC#N` was tested. Which Potency did it give?
The Potency was inconclusive: 112 µM [inhibitor, single point].

`O=C(c1ccco1)N1CCN(C(=S)Nc2ccccc2Cl)CC1` was tested. Which Potency did it give?
Its Potency is inconclusive: 35.5 µM [inhibitor, full curve, poor fit].

`CCCCn1nc(C(=O)N(C)CC(=O)Nc2cccc(F)c2)c2ccccc2c1=O` was tested. Which Potency did it give?
The Potency was inconclusive: 56.2 µM [inhibitor, partial curve, poor fit].
